# In patent publication US20190338026A1 (University of Texas, published 2019):
# Molecular target: collagen I
# Assay: ELISA, collagen I coated, LAIR1-ECD-His 10 ug/ml pre-incubated with antibody 10 ug/ml, anti-His-HRP
binder,measurement,value
human LAIR1 extracellular domain (ECD) protein with 6 HIS tag at the C-terminus (receptor) QEEDLPRPSISAEPGTVIPLGSHVTFVCRGPVGVQTFRLERESRSTYNDTEDVSQASPSESEARFRIDSVSEGNAGPYRCIYYKPPKWSEQSDYLELLVKETSGGPDSPDTEPGSSAGPTQRPSDNSHNEHAPASQGLKAEHLYHHHHHH,binding,binds

# These are yes or no findings as the source states them, for the method shown. A result given as binding can be weak or reduced; the word gives no strength. Tags and fused reporters may be left off the sequences shown.
